## Results of single-concentration screens

From ChEMBL document CHEMBL3988442, “University of Dundee, Small-Polar-MMV Screening Library” (2021).

Mtb cholesterol medium: 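Growth of Mycobacterium tuberculosis over 4 days (cholesterol / DPPC medium with tyloxapol); the read-out is not stated. Tested at 50 µM. Higher reads as more growth inhibition (inferred: compounds with an IC50 in retests scored well above the rest). Size under these conditions: about 69,000 compounds, about 370 of them at 50% or above in at least one test.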
Mtb glucose medium: 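Whole-cell growth test on Mycobacterium tuberculosis, read after 3 days in glucose-containing 7H9 medium; the read-out is not stated. Tested at 50 µM. The record gives no direction; compounds that gave an IC50 in retests scored well above the rest, so higher reads as more growth inhibition. Of about 69,000 compounds tested this way, about 760 (1.1%) reached 50% or more in at least one test.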

Values are the deposited “Percent Effect”, in %.
How 0% and 100% were set is not recorded. Most values in the screen are low, and negative values occur.
The compounds are a random part of those screened.
Two or more numbers in one place are separate tests of the same structure; such repeats can differ widely.

| # | Compound | Mtb cholesterol medium | Mtb glucose medium |
|---|---|---|---|
| 1 | `Cc1cccc(N2CCN(CC(=O)N3CCCC(N(C)C)CC3)CC2)c1` (centres undefined) | 0.7323% | -5.389% |
| 2 | `CCOCc1cncc2c1CCN(C(=O)c1cscn1)C2.O=C(O)C(F)(F)F` | -8.388% | -6.672% |
| 3 | `C[C@@H]1C[C@H](C(F)(F)F)n2nc(C3CCN(S(=O)(=O)N(C)C)CC3)cc2N1` | -2.559% | 3.205% |
| 4 | `CC(CCc1ccc(O)cc1)NC1CCN(S(C)(=O)=O)CC1` (centres undefined) | -4.347% | 8.912% |
| 5 | `COc1ccc2cc(C(=O)N3CCCC(n4ccnc4C)C3)[nH]c2c1` (centres undefined) | 14.09% | 3.6% |
| 6 | `N#CCCCOc1cccnc1NC(=O)CCC1CCCC1` | -15.54% | -14.39% |
| 7 | `[H][C@@]12C[C@H](NC(=O)c3cc(C)ccc3NC)CN1CCN(C)C2` | -16.15% | 2.25% |
| 8 | `CC(Nc1nccc(CCC(F)(F)F)n1)c1nc(-c2ccncc2)no1` (centres undefined) | 7.887% | 4.602% |
| 9 | `c1ccc(-c2nc3c(c(NCCCn4cncn4)n2)CCNCC3)nc1` | 25.58% | -19.32% |
| 10 | `O=C(O)C(F)(F)F.O=C(O)C(F)(F)F.[H][C@@]12CCCO[C@]1([H])[C@H](NC(=O)c1cscn1)CN2Cc1cnn(C)c1` | -2.601% | -22.55% and -1.693% |
| 11 | `CNC(=O)C1CCC2(CCN(c3nncs3)CC2)CO1.O=C(O)C(F)(F)F` (centres undefined) | -5.166% | 21.49% |
| 12 | `Cc1noc(C)c1CN1CCCC2(CCN(CC3CCCC3)C2)C1.O=C(O)C(F)(F)F` (centres undefined) | -0.2191% and 2.083% | 23% |
| 13 | `CC(=O)N1CCC(CCNC(C)c2cc(C)cc(C)c2)CC1` (centres undefined) | -5.887% | -39.53% |
| 14 | `O=C(O)C(F)(F)F.[H][C@@]12CCN(c3ncc(F)cn3)[C@]1([H])CC[C@H](C(=O)NC1CCCC1)O2` | -30.36% | -32.5% and -8.949% |
| 15 | `CN(Cc1cccs1)C(=O)c1ccc(N2CCOCC2)c(F)c1` | -21.97% | -29.89% |
| 16 | `CCCOC(=O)N1CCC(c2nnc(Cn3cccn3)n2C2CC2)CC1` | -10.64% | 8.755% |
| 17 | `CS(=O)(=O)Cc1ccc(CNC(=O)c2cccnc2O)cc1` | -28.34% | -25.89% |
| 18 | `CC(CCc1cccc(F)c1)NC(=O)NCc1ncnn1C` (centres undefined) | -2.525% and -3.876% | -9.652% |
| 19 | `CCc1noc(CS(=O)(=O)Cc2ccccc2Cl)n1` | 19.24% | 33.11% |
| 20 | `C=C(C)CN(CC)C(=O)c1cc(F)ccc1N1CCN(C)CC1` | -13.98% | -10.22% |
| 21 | `CCOCC1CN(Cc2ccc3c(c2)OCO3)Cc2nccn2C1` (centres undefined) | 12.62% | 18.73% |
| 22 | `Cc1cc(C(=O)N(C)C)nc(C2(C)CCCN2c2ccnc(C)n2)n1` (centres undefined) | -1.803% and -8.644% | -21.92% |
| 23 | `CC(C)C(NC(=O)c1ccc(N2CCOCC2)nc1)c1cccs1` (centres undefined) | 12.74% | 17.73% |
| 24 | `CCc1n[nH]c(C2CN(C(=O)c3ccnc(C)n3)CCO2)n1` (centres undefined) | -18.23% | -1.581% |
| 25 | `COc1ccc(C)cc1CN1CCCC1Cn1nc(C)nc1C` (centres undefined) | -5.518% | -18.81% |
| 26 | `Cc1cccc(C)c1OCC(=O)N1CCOCC1c1ncon1` (centres undefined) | -10.22% | 1.476% |
| 27 | `CCc1cnc(C)nc1N1CCS(=O)(=O)CC1` | -31.33% | -29.25% |
| 28 | `Cc1ccccc1C1(CNCc2cnc(N3CCOCC3)nc2)CC1` | -1.212% | 9.345% |
| 29 | `CCN(CC)C(CNC(=O)c1ccc(S(C)(=O)=O)cc1)c1ccco1` (centres undefined) | 6.532% and -3.325% | 5.607% |
| 30 | `Cc1cccc(S(=O)(=O)NCc2cccc(CS(C)(=O)=O)c2)c1` | -20.1% | -6.26% and -1.096% |
| 31 | `COc1ccc2c(c1)OC1(CCN(Cc3ccc(F)cc3)CC1)CC2=O` | -21.65% | -20.59% |
| 32 | `c1ccc2c(c1)CC(N1CCCN(Cc3cccc4nonc34)CC1)C2` | 9.497% | -24.86% |
| 33 | `NC(=O)Cn1c(CO)cnc1SCc1ccccc1Cl` | -20.84% | 1.86% and -6.573% |
| 34 | `[H][C@@]12CCN(Cc3scnc3C)C[C@]1(c1nnc(C)o1)CCO2` | -2.279% | 27.22% |
| 35 | `CC(C)(C)c1c[nH]c([C@@H]2COCCN2C2CCCCC2)n1` | -4.048% | 7.962% and -10.04% |
| 36 | `Cc1[nH]nc(CCC(=O)N2CCCC(OCc3cccnc3)C2)c1C` (centres undefined) | -23.5% | -9.068% |
| 37 | `CNCCNc1nccc(-c2cn(C)nc2C)n1` | 2.847% | 9.092% |
| 38 | `CS(=O)(=O)N1CCCC(c2cncc(Nc3ccccn3)n2)C1` (centres undefined) | 21.74% | 20.85% |
| 39 | `CC(Oc1ccccc1C(F)(F)F)C(=O)NCCNC(=O)C1CC1` (centres undefined) | -1.515% and -2.561% | 17.74% |
| 40 | `Cn1ccnc1COc1ccc(CSc2nnnn2C2CC2)cc1` | 9.845% and 8.969% | -17.3% |
| 41 | `CN(C)C(=O)N1CCC2(CC1)CN(Cc1ccccn1)C(=O)CO2.O=C(O)C(F)(F)F` | 6.37% | 8.822% |
| 42 | `CSCc1cccc(S(=O)(=O)NCCCO)c1` | -23.26% | -27.34% |
| 43 | `CCC[C@@H](NC(N)=O)C(=O)N1Cc2ccccc2-c2ccccc2C1` | -6.074% | -40.07% |

Once more, the final 4:

{"compound": "Cn1ccnc1COc1ccc(CSc2nnnn2C2CC2)cc1", "Mtb cholesterol medium": "9.845 and 8.969", "Mtb glucose medium": -17.3}
{"compound": "CN(C)C(=O)N1CCC2(CC1)CN(Cc1ccccn1)C(=O)CO2.O=C(O)C(F)(F)F", "Mtb cholesterol medium": 6.37, "Mtb glucose medium": 8.822}
{"compound": "CSCc1cccc(S(=O)(=O)NCCCO)c1", "Mtb cholesterol medium": -23.26, "Mtb glucose medium": -27.34}
{"compound": "CCC[C@@H](NC(N)=O)C(=O)N1Cc2ccccc2-c2ccccc2C1", "Mtb cholesterol medium": -6.074, "Mtb glucose medium": -40.07}